At least one compound was matched to its structure with a doubt left.
Legend:
[1] = cited from earlier work
[2] = cited from earlier work; remark: listed apart in the source
[3] = tested on: resveratrol prenyltransferase AhR4DT; assay: Prenyltransferase assay with microsomal fraction of elicited peanut hairy roots; type: biochemical, Arachis hypogaea; conditions: 100 μM acceptor, 300 μM DMAPP

| Structure (SMILES) | metabolic profiles compared to non-prenylated analogs [1] | inhibition of lipid oxidation [2] | prenylation as prenyl acceptor [3] |
| --- | --- | --- | --- |
| CC(C)/C=C/c1c(O)cc(/C=C/c2ccc(O)c(O)c2)cc1O [arachidin-1] | favorable metabolic profiles | more effectively than resveratrol |  |
| COc1cc(/C=C/c2ccc(O)cc2)cc(OC)c1 [pterostilbene] |  |  | did not produce any product |

Source: patent US11535856B2, “Stilbenoid prenyltransferases from plants” (Arkansas State University—Jonesboro, priority 2016, dated 2022)
